# Results from PubChem BioAssay (Tox21).
# Protein sequences, listed by entry. Tags and fused reporters are not part of them. Lines headed by an entry give the natural chain unless they say otherwise; changes in a name come on top.
# UniProt Q969F8, whole entry, looked up: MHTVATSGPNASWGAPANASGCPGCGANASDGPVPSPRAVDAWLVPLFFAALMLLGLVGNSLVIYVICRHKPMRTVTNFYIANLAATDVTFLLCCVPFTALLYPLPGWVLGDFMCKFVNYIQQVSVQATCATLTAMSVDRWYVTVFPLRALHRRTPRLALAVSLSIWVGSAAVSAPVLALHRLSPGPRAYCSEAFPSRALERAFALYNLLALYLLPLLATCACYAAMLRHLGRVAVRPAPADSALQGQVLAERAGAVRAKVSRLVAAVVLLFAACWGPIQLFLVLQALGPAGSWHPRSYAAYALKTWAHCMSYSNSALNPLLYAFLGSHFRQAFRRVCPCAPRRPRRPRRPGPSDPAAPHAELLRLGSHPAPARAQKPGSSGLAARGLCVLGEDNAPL
# UniProt P28223, whole entry, looked up: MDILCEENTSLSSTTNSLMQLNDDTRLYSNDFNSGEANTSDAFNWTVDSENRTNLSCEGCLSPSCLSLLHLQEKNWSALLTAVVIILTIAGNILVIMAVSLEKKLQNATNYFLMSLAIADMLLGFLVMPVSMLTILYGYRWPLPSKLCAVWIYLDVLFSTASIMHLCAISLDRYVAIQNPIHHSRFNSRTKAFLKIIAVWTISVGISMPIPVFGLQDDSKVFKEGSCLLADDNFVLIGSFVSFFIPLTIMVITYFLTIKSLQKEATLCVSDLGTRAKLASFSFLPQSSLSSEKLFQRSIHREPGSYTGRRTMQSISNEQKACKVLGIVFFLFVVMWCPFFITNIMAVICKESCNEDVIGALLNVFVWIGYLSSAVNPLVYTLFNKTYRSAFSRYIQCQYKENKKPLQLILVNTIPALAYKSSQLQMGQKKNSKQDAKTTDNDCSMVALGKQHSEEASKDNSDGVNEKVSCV
# UniProt P14416, whole entry, looked up: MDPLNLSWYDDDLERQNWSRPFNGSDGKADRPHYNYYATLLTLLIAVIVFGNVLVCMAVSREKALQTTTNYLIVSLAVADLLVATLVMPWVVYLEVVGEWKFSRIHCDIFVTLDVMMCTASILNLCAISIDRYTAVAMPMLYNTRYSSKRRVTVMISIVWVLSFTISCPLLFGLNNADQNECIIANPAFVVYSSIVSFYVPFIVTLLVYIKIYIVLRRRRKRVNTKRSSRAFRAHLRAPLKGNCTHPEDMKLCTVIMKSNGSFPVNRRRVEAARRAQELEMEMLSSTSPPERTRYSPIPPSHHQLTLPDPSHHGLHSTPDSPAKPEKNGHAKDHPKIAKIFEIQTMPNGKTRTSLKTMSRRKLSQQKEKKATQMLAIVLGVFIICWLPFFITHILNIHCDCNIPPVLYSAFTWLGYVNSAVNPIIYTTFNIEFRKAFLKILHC
# UniProt P11229: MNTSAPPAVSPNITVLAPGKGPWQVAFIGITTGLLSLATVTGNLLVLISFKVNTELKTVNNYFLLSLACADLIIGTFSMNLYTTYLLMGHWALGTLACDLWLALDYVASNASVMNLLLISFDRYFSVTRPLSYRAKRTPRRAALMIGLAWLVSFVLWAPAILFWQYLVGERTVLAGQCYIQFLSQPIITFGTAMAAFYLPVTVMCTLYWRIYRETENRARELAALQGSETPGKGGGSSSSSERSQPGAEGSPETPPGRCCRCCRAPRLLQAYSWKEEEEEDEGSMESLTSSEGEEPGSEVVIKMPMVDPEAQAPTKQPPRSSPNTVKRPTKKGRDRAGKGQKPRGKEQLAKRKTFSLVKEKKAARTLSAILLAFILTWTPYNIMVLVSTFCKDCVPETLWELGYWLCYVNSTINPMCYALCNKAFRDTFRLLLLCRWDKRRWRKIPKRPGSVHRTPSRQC
# Values joined by “and” are separate entries in the source; they are usually repeats but may differ in a detail not shown here. Equal entries are not always repeated. The shares of active, inactive and inconclusive entries below differ from those in the screen. For part of these data: Where the call is inconclusive, the potency comes from a doubtful curve fit. Active and inactive are the calls of the source. Unless noted, calls follow the shape of the full dose curve.
# What was measured:
# [1] = target: KiSS-1 receptor (Homo sapiens) (UniProt Q969F8); experiment: Human kisspeptin (KISS1R) small molecule agonists, calcium flux assay in KISS1R-HEK293 cells (AID 1920064; active = well fitted activation curve with a large enough effect in the repeat runs; inconclusive = weak or mixed curves; as to activation: % is scaled to controls: 0 for no effect and ±100 for the full control effect)
# Method in brief: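 After overnight (18 h) culture at 37 C/5% CO2, human KISS1R-HEK293 cells received calcium dye for 1 h, then test compound; emission at 540 nm (excitation 480 nm) was tracked for 3 min.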
# [2] = p53 small molecule agonists, cell-based qHTS assay: qHTS cell viability counter screen (AID 1963581); also: nearly all actives have a fitted effect of over 45% in size
# Method in brief: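 qHTS counter screen: 16 h compound exposure at 37 C of p53RE-bla HCT-116 cells (4,000 per well, seeded 5 h prior), cell viability by ATP luminescence.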
# [3] = p53 small molecule agonists, cell-based qHTS assay with rat liver microsomes (AID 1963578); settings: HCT-116 p53RE-bla, beta-lactamase ratio, 16 h; activation: at 66 µM (top of the series) unless noted
# Method in brief: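 Cells carrying a p53 response element–beta-lactamase reporter were plated and rested 5 h, then dosed with compound in DMSO plus rat liver microsomes and NADPH, each at 0.5 mg/mL final. After 16 h at 37 C, LiveBLAzer substrate was added for 2 h.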
# [4] = p53 small molecule agonists, cell-based qHTS assay with human liver microsomes: qHTS cell viability counter screen (AID 1963579); also: nearly all actives have a fitted effect of over 45% in size
# Method in brief: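 Cytotoxicity counter screen: p53RE-bla, 4,000 cells/well; 5 h settle, 37 C/5% CO2; cpd + HLM 0.5 mg/mL + NADPH 0.5 mg/mL (final); 16 h, 37 C; CellTiter-Glo, 30 min RT, luminescence.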
# [5] = p53 small molecule agonists, cell-based qHTS assay with rat liver microsomes: qHTS cell viability counter screen (AID 1963580); also: nearly all actives have a fitted effect of over 45% in size
# Method in brief: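 Counter screen for cytotoxicity under metabolic activation: rat liver microsomes and NADPH, 0.5 mg/mL final each, added with compounds to p53RE-bla HCT-116 cells; 16 h at 37 C, then ATP luminescence read.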
# [6] = p53 small molecule agonists, cell-based qHTS assay (AID 1963582; active = well fitted activation curve with a large enough effect in the signal ratio in the repeat runs, not every such curve was filed as active; inconclusive = weak or mixed curves; the % refers to the signal ratio); settings: HCT-116 p53RE-bla reporter, beta-lactamase FRET ratio, 16 h; activation: at 66 µM (top of the series) unless noted
# Method in brief: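 Measured: fluorescence from cleaved LiveBLAzer substrate. System: p53RE-bla cells, 16 h compound treatment at 37 C, 2 h substrate step at room temperature.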
# [7] = target: 5-hydroxytryptamine receptor 2A (Homo sapiens) (UniProt P28223); experiment: 5-hydroxytryptamine receptor 2A (HTR2A) small molecule agonists, cell-based qHTS assay (AID 1963587); also: nearly all actives have a fitted effect of over 30% in size
# Method in brief: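 HTR2A-CHO cells, plated 18 h at 37 C/5% CO2, dye-loaded 1 h at 37 C; compounds in DMSO added by pin tool (agonist mode). Intracellular calcium flux read as kinetic fluorescence on FDSS over 2 min at 1 s intervals.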
# [8] = cAMP Responsive Elements (CRE) small molecule agonists, cell-based qHTS assay (AID 1963590); settings: CRE-bla HEK293T, beta-lactamase FRET ratio, 3 h; activation: at 92.4 µM (top of the series) unless noted
# Method in brief: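 Test agents in DMSO were incubated 3 h at 37 C/5% CO2 with CRE-bla HEK 293T cells seeded 18 h earlier; LiveBLAzer B/G FRET substrate was added and read after 2 h at room temperature.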
# [9] = cAMP Responsive Elements (CRE) small molecule antagonists, cell-based qHTS assay (AID 1963591; active = well fitted inhibition curve with a large enough effect in the signal ratio in the repeat runs, not every such curve was filed as active; inconclusive = weak or mixed curves, or effect the other way; the % refers to the signal ratio); settings: CRE-bla HEK293T, beta-lactamase FRET ratio; activity change, negative = inhibition: at 92.4 µM (top of the series) unless noted
# Method in brief: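 Reporter line CRE-bla HEK 293T in dialyzed-FBS DMEM; cells preincubated 18 h, treated 3 h with compound plus NKH477 (0.25 uM final); LiveBLAzer FRET, 2 h RT.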
# [10] = target: Beta-2 adrenergic receptor (Homo sapiens) (UniProt P07550); experiment: Adrenergic beta2 receptor (ADRB2) small molecule agonists, cell-based qHTS assay (AID 1963593); settings: CHO-ADRB2 cells, cAMP HTRF, 30 min;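 as to activation: CHO cells stably overexpressing human ADRB2; % is scaled to controls: 0 for no effect and ±100 for the full control effect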
# Method in brief: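 CHO cells stably over-expressing ADRB2 were plated overnight at 37C, then dosed with compounds plus a stimulation mix containing 100uM IBMX and 25uM Ro-20-1724 for 0.5hr at room temperature. cAMP was measured by HTRF competition, 1hr.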
# [11] = target: D(2) dopamine receptor (Homo sapiens) (UniProt P14416); experiment: Dopamine D2 receptor (DRD2) small molecule antagonists, cell-based qHTS assay (AID 1963595; active = well fitted inhibition curve with a large enough effect in the signal ratio in the repeat runs, with a control signal flat; inconclusive = weak or mixed curves, or effect the other way; the % refers to the signal ratio; as to activity change, negative = inhibition: % is scaled to controls: 0 for no effect and ±100 for the full control effect); settings: HEK293-DRD2 cAMP HTRF antagonist mode; activity change, negative = inhibition: at 92.4 µM (top of the series) unless noted
# Method in brief: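 Human DRD2 antagonist qHTS measuring cAMP by HTRF. The cells are exposed to compound for 10 min, then to NKH477 (200 nM) and quinpirole (12 nM) for 30 min at RT, with Ro20-1724 (0.1 mM) present throughout.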
# [12] = target: 5-hydroxytryptamine receptor 2A (Homo sapiens) (UniProt P28223); experiment: 5-hydroxytryptamine receptor 2A (HTR2A) small molecule antagonists, cell-based qHTS assay (AID 1963586); also: nearly all actives have a fitted effect of over 45% in size
# Method in brief: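 CHO cells stably expressing human HTR2A were plated for 18 h at 37 C, then loaded with calcium dye for 1 h. Compounds were preincubated 5 min at room temperature before DOI (4 nM solution) was added. Kinetic fluorescence was read for 3 min.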
# [13] = target: Muscarinic acetylcholine receptor M1 (Homo sapiens) (UniProt P11229); experiment: Cholinergic receptor muscarinic 1 (CHRM1) small molecule agonists, cell-based qHTS assay (AID 1963589); also: nearly all actives have a fitted effect of over 35% in size
# Method in brief: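 Kinetic fluorescence (1 s intervals) of calcium-sensitive dye in human M1 CHO cells after compound addition; cells pre-incubated 18 h at 37 C/5% CO2 and dye-loaded 1 h.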
# [14] = p53 small molecule agonists, cell-based qHTS assay with human liver microsomes (AID 1963577); settings: HCT-116 p53RE-bla with human liver microsomes, ratio, 16 h; activation: at 66 µM (top of the series) unless noted
# Method in brief: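 Fluorescence of the beta-lactamase reporter in p53RE-bla cells, detected with LiveBLAzer substrate (2 h, room temperature, dark), served as the read-out after 16 h compound exposure at 37 C with human liver microsomes and NADPH, each 0.5 mg/mL final.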
# [15] = target: Beta-2 adrenergic receptor (Homo sapiens) (UniProt P07550); experiment: Adrenergic beta2 receptor (ADRB2) small molecule antagonists, cell-based qHTS assay (AID 1963592); settings: CHO-ADRB2 cells, isoproterenol-stimulated cAMP HTRF ratio, 0.5 h; activity change, negative = inhibition: at 92.4 µM (top of the series) unless noted; also: nearly all actives have a fitted effect of over 50% in size; as to activity change, negative = inhibition: % is scaled to controls: 0 for no effect and ±100 for the full control effect
# Method in brief: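 Assay format: CHO-ADRB2 cells, 18-20hr seeding at 37C/5% CO2, then compound plus 1nM isoproterenol agonist mix for 0.5hr RT. Homogeneous time-resolved fluorescence cAMP detection after 1hr, expressed as 665/615 nm ratio.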
# [16] = target: D(2) dopamine receptor (Homo sapiens) (UniProt P14416); experiment: Dopamine D2 receptor (DRD2) small molecule agonists, cell-based qHTS assay (AID 1963594); settings: HEK293-DRD2 cAMP HTRF, agonist mode, 30 min; activation: at 92.4 µM (top of the series) unless noted; also: nearly all actives have a fitted effect of over 35% in size
# Method in brief: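 HEK293 cells stably expressing DRD2 were cultured 24 h at 37 C, then given Ro20-1724 (0.1 mM final) and compounds for 10 min at room temperature. NKH477 (200nM) was then added for 30 min. cAMP was read by HTRF.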
# [17] = G protein-coupled receptor (GPCR) small molecule agonists, calcium flux assay: HEK293 wild type cell line counter screen (AID 1920065)
# Method in brief: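 Following 18 h incubation at 37 C/5% CO2, plates got calcium dye for 1 h; compounds, ATP or DMSO were then pinned in and fluorescence followed kinetically (480/540 nm).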
# [18] = target: Muscarinic acetylcholine receptor M1 (Homo sapiens) (UniProt P11229); experiment: Cholinergic receptor muscarinic 1 (CHRM1) small molecule antagonists, cell-based qHTS assay (AID 1963588); also: nearly all actives have a fitted effect of over 40% in size
# Method in brief: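 Compounds were tested at 15 concentrations in three independent runs. Dye-loaded CHRM1-CHO cells were exposed 5 min at room temperature before stimulation by acetylcholine added at 50nM. Intracellular calcium was read kinetically on FDSS for 3 min.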
# [19] = activation: at 92.4 µM (top of the series) unless noted
# Potency is read from the fitted curve at half-maximal effect.
structure (smiles),measurement,setting,value
CCCCCCCCCCCCCCBr,Potency,[1],inactive
same,Potency,[2],"inconclusive: 2.01 µM [rising, full curve]"
COc1cc(/C=C/C(=O)CC(=O)/C=C/c2ccc(O)c(OC)c2)ccc1O,Potency,[1],inconclusive: 55.3 µM [activator]
same,Potency,[3],"inconclusive: 39.9 µM [fluorescent, partial curve]"
same,Potency,[4],active: 16.3 µM
same,Potency,[5],"inconclusive: 46.1 µM [cytotoxic, single point]"
same,Potency,[2],active: 46.1 µM
same,Potency,[6],inconclusive: 35.2 µM [fluorescent]
same,Potency,[7],active: 22 µM
same,Potency,[8],"inconclusive: 48.9 µM [fluorescent, partial curve]"
same,Potency,[9],"inconclusive: 30 µM [fluorescent, partial curve]"
same,Potency,[10]; [19],"inconclusive: 0.0869 µM [inhibitor, full curve, poor fit]"
same,"activity change, negative = inhibition",[11],inconclusive: -8.63%
CCCCCCCCOC(=O)c1cc(O)c(O)c(O)c1,Potency,[1],"inconclusive: 61.6 µM [activator, partial curve, poor fit]"
same,Potency,[2],"inconclusive: 45.8 µM [cytotoxic, single point]"
same,Potency,[6],"inconclusive: 51.3 µM [falling, single point]"
same,Potency,[12],inactive
same,Potency,[13],"inconclusive: 54.9 µM [rising, single point]"
same,Potency,[9],active: 30.6 µM
same,Potency,[10]; [19],"inconclusive: 15.4 µM [inhibitor, single point]"
same,Potency,[11],inconclusive: 54.5 µM [inhibitor]
CC(C)Nc1ccc(NC(C)C)c2c1C(=O)c1ccccc1C2=O,Potency,[1],"inconclusive: 1.28 µM [activator, partial curve, poor fit]"
same,Potency,[14],"inconclusive: 18.9 µM [rising, partial curve, poor fit]"
same,Potency,[2],"inconclusive: 1.69 µM [rising, full curve, poor fit]"
same,Potency,[15],inactive
same,Potency,[10]; [19],inactive
same,Potency,[16],"inconclusive: 28.4 µM [falling, partial curve, poor fit]"
CC(C)(O)c1ccccc1CC[C@@H](SCC1(CC(=O)O)CC1)c1cccc(/C=C/c2ccc3ccc(Cl)cc3n2)c1,Potency,[17],inactive
same,Potency,[8],inactive
same,activation,[10]; [19],inconclusive: 11.2% [at 42.5 µM]
same,"activity change, negative = inhibition",[11],inconclusive: -2.62% [at 42.5 µM]
Nc1ccc(Cl)c(N)c1,Potency,[17],inactive
same,Potency,[9],inactive
same,Potency,[15],"inconclusive: 2.44 µM [falling, single point]"
same,activation,[10]; [19],inconclusive: -21.6%
O=S(=O)(O)c1cc(S(=O)(=O)O)c2ccc3c(S(=O)(=O)O)cc(S(=O)(=O)O)c4ccc1c2c43,Potency,[1],"inconclusive: 0.0033 µM [activator, full curve, poor fit]"
same,activation,[8],inactive: 0.24% [at 19 µM]
same,activation,[10]; [19],inactive: -12.6% [at 19 µM]
CC/C=C\CCCCO,Potency,[17],inactive
same,Potency,[10]; [19],"inconclusive: 1.37 µM [inhibitor, single point]"
CCCCOCCOC(=O)COc1nc(Cl)c(Cl)cc1Cl,Potency,[1],"inconclusive: 54.9 µM [activator, single point]"
same,Potency,[2],"inconclusive: 40.8 µM [rising, partial curve, poor fit]"
same,Potency,[12],"inconclusive: 33.4 µM [inhibitor, partial curve, poor fit]"
same,Potency,[7],"inconclusive: 54.9 µM [activator, single point]"
same,Potency,[18],"inconclusive: 23.7 µM [inhibitor, partial curve]"
same,Potency,[13],"inconclusive: 54.9 µM [rising, single point]"
same,Potency,[9],inactive
same,activation,[10]; [19],inconclusive: -35.9%
same,Potency,[16],"inconclusive: 0.0017 µM [rising, full curve, poor fit]"
same,"activity change, negative = inhibition",[11],inconclusive: -14.3%
O=C1OC2(c3ccc(O)cc3Oc3cc(O)ccc32)c2ccccc21,Potency,[1],active: 550 nM and active: 2.39 µM
same,Potency,[2],"inconclusive: 1.82 µM [cytotoxic, single point]"
same,Potency,[8],"inconclusive: 48.6 µM [rising, partial curve] and inconclusive: 26.6 µM [rising, partial curve]"
same,Potency,[9],"inconclusive: 57 µM [rising, partial curve] and inconclusive: 26.6 µM [rising, partial curve]"
same,activation,[10]; [19],inconclusive: -30.8%
same,activation,[10]; at 42.5 µM (top of the series),inactive: -2.69%
same,Potency,[11],"inconclusive: 33.5 µM [cytotoxic, single point]"
O=C(Nc1cccc(C(F)(F)F)c1)c1cc(Br)cc(Br)c1O,Potency,[17],"inconclusive: 21.9 µM [activator, partial curve, poor fit]"
same,Potency,[4],active: 9.13 µM
same,Potency,[5],"inconclusive: 45.8 µM [cytotoxic, single point]"
same,Potency,[6],inconclusive: 14.5 µM [fluorescent]
same,Potency,[8],"inconclusive: 17.2 µM [fluorescent, full curve]"
same,Potency,[9],"inconclusive: 48.6 µM [fluorescent, partial curve]"
same,Potency,[15],active: 61.1 µM
same,Potency,[10]; [19],"inconclusive: 48.6 µM [inhibitor, partial curve]"
same,Potency,[16],inactive

# Part of the list above, bar-delimited.
structure (smiles) | measurement | setting | value
CCCCCCCCOC(=O)c1cc(O)c(O)c(O)c1 | Potency | [10]; [19] | inconclusive: 15.4 µM [inhibitor, single point]
CCCCOCCOC(=O)COc1nc(Cl)c(Cl)cc1Cl | Potency | [12] | inconclusive: 33.4 µM [inhibitor, partial curve, poor fit]

# Two entries picked at random from those above:
structure (smiles),measurement,setting,value
CC(C)Nc1ccc(NC(C)C)c2c1C(=O)c1ccccc1C2=O,Potency,[16],"inconclusive: 28.4 µM [falling, partial curve, poor fit]"
CC(C)(O)c1ccccc1CC[C@@H](SCC1(CC(=O)O)CC1)c1cccc(/C=C/c2ccc3ccc(Cl)cc3n2)c1,Potency,[17],inactive
